From article PMC8274477
These are yes or no findings as the source states them, for the method shown. Some entries that bind do so weakly or less than the wild type.

Protein sequences, listed by entry. Tags and fused reporters are not part of them. Residues count along the entry.
UniProt Q9BUP3: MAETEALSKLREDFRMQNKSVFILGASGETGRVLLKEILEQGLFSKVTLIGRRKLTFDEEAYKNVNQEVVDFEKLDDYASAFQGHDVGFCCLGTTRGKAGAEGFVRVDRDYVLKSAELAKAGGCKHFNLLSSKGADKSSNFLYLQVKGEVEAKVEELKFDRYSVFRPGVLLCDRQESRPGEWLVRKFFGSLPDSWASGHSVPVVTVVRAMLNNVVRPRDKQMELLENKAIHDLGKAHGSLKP
UniProt P25067, residues 29-703: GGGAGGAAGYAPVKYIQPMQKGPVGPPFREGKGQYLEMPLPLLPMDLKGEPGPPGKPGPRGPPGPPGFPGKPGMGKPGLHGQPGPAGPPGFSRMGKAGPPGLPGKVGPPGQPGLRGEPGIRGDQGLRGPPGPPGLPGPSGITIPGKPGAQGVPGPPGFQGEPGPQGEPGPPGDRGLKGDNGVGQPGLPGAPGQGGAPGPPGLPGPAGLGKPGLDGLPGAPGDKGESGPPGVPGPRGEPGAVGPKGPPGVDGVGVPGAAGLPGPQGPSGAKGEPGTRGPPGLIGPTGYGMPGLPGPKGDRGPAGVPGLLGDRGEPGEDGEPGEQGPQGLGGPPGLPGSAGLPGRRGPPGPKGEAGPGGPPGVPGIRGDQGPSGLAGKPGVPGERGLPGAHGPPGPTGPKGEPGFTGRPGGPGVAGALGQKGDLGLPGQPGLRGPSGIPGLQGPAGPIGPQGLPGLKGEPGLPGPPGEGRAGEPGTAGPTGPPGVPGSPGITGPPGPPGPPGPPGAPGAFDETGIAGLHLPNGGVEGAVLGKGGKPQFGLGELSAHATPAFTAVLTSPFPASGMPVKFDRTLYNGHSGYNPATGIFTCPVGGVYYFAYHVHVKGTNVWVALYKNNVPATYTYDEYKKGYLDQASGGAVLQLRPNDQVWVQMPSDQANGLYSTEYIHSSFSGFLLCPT
UniProt Q96AH0: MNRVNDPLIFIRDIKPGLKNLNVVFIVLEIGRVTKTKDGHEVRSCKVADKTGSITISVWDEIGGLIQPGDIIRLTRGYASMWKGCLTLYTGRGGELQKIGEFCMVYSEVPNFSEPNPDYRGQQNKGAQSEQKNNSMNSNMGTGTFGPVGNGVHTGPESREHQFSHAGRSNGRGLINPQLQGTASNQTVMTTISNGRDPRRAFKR

What was measured:
Assay in all cases: peptide or protein array; HuProt human proteome microarray; 5 ug/5 ml biotin-labelled LUBAC or OTULIN in solution, 1 h at room temperature; Cy5-streptavidin, scanned at 635 nm; BSA as negative control; hits: Z-score >= 3 and I_(Mean_Ratio) >= 1.4; both purified
CPT1A (human) = target: T1, CPT1A (human) (UniProt P50416)
T1 sequence: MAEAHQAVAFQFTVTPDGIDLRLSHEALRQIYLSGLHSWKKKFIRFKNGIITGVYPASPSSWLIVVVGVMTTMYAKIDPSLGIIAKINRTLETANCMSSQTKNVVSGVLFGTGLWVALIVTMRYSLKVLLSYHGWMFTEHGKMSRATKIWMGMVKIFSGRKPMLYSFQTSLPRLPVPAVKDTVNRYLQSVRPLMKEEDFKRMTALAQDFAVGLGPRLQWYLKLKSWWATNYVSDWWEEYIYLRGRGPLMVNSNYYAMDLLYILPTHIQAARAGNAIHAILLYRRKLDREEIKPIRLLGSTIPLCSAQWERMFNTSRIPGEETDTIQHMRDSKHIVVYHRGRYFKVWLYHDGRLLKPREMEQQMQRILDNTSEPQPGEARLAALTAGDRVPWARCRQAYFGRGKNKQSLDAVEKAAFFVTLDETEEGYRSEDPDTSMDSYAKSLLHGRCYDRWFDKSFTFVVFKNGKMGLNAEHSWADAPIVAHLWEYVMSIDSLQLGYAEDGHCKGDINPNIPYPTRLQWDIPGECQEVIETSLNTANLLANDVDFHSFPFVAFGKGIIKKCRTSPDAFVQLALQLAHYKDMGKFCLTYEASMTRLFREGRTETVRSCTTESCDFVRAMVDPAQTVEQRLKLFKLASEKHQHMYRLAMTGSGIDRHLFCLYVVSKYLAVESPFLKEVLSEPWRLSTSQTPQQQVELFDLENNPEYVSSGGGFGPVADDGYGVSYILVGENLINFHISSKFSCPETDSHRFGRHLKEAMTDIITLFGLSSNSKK

CCNB1IP1 (human) = target: T2, CCNB1IP1 (human) (UniProt Q9NPC3)
T2 sequence: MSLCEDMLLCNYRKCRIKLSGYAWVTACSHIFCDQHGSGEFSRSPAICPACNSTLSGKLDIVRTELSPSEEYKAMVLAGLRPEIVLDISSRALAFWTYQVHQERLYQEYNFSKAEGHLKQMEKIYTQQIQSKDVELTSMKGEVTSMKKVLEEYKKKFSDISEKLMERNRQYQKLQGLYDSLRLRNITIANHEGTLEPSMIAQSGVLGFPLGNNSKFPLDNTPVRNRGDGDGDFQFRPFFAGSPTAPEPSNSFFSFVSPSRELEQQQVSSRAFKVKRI

HTATIP2 (human) = HTATIP2 (human) (UniProt Q9BUP3)
COL8A2 (human) = COL8A2 (human) (UniProt P25067)
NABP1 (human) = NABP1 (human) (UniProt Q96AH0)
FSCB (human) = target: T3, FSCB (human) (UniProt Q5H9T9)
T3 sequence: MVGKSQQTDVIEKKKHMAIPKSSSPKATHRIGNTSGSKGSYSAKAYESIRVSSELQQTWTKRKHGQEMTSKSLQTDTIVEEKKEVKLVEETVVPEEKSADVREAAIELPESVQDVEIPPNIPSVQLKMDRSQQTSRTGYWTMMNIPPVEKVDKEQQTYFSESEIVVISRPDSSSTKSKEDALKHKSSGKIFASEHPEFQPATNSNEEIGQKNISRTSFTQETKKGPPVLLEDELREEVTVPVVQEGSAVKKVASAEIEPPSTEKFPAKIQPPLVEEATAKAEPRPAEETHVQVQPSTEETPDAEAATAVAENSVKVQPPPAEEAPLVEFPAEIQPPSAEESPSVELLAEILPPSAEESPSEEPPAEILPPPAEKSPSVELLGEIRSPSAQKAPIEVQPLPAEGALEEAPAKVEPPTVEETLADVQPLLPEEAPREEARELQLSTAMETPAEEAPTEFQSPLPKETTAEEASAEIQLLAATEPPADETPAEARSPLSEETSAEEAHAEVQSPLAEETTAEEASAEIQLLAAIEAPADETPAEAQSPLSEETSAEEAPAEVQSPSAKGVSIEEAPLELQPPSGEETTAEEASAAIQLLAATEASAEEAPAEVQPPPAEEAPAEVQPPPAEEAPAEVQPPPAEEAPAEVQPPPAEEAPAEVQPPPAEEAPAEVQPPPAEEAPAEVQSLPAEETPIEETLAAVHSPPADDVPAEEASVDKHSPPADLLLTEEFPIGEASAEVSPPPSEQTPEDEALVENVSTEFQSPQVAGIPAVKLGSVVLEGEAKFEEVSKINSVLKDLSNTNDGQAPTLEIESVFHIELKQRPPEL

Measured: binding

linear ubiquitin chain assembly complex (LUBAC), purified as HIS-tagged HOIP with the subunit HOIL-1, biotin-labelled (from UniProt Q96EP0 1-1072; Q9BYM8 1-510)
binds: all assays above
